From publication doi:10.1101/2022.08.30.505862

Protein sequences, listed by entry. Tags and fused reporters are not part of them. Residues count along the entry.
UniProt Q14498, 247-332 H258A: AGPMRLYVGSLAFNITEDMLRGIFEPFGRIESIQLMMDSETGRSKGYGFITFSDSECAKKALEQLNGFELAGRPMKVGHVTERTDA
UniProt Q14498, 247-332 R289A: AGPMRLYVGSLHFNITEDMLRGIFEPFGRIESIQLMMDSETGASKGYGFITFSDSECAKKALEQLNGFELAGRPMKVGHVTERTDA
UniProt Q14498, 143-332: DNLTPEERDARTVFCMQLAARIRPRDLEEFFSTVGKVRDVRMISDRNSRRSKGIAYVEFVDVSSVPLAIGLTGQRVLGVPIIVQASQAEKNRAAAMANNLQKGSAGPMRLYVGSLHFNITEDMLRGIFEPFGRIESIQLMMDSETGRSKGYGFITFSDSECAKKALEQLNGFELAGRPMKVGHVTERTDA

Columns and labels:
RBM39 RRM2 H258A = RBM39 RRM2 H258A (UniProt Q14498); test: ITC; conditions: Kd only in figure
RBM39 RRM2 R289A = RBM39 RRM2 R289A (UniProt Q14498); test: ITC; conditions: Kd only in figure
GB1-RBM39-RRM12 = GB1-RBM39-RRM12 (UniProt Q14498); test: NMR CSP; conditions: letters put together from the description

AGCUUUG [AGCUUUG ssRNA]: binds more weakly (RBM39 RRM2 H258A); binds more weakly (RBM39 RRM2 R289A).
“GGGAUUUCCCCAAAUGUGGGAAACUCCC [U1 snRNA SL3]”: binds (GB1-RBM39-RRM12).

For part of these data: A weaker result is weaker than the reference pair of the same experiment. For part of these data: For at least one entry, the source does not settle the construct or the ends of the probe. For part of these data: At least one verdict was read from the data and is not stated in words by the source.
